Assay results taken from publication PMC2702331.

Chains of the proteins cited; added tags and fusions are not shown.
UniProt P04608: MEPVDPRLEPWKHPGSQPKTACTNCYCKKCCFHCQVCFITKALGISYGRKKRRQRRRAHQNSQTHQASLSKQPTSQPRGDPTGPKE

B1: RHII/Gu, Q9NR30 1-783 (protein)
chain: MPGKLRSDAGLESDTAMKKGETLRKQTEEKEKKEKPKSDKTEEIAEEEETVFPKAKQVKKKAEPSEVDMNSPKSKKAKKKEEPSQNDISPKTKSLRKKKEPIEKKVVSSKTKKVTKNEEPSEEEIDAPKPKKMKKEKEMNGETREKSPKLKNGFPHPEPDCNPSEAASEESNSEIEQEIPVEQKEGAFSNFPISEETIKLLKGRGVTFLFPIQAKTFHHVYSGKDLIAQARTGTGKTFSFAIPLIEKLHGELQDRKRGRAPQVLVLAPTRELANQVSKDFSDITKKLSVACFYGGTPYGGQFERMRNGIDILVGTPGRIKDHIQNGKLDLTKLKHVVLDEVDQMLDMGFADQVEEILSVAYKKDSEDNPQTLLFSATCPHWVFNVAKKYMKSTYEQVDLIGKKTQKTAITVEHLAIKCHWTQRAAVIGDVIRVYSGHQGRTIIFCETKKEAQELSQNSAIKQDAQSLHGDIPQKQREITLKGFRNGSFGVLVATNVAARGLDIPEVDLVIQSSPPKDVESYIHRSGRTGRAGRTGVCICFYQHKEEYQLVQVEQKAGIKFKRIGVPSATEIIKASSKDAIRLLDSVPPTAISHFKQSAEKLIEEKGAVEALAAALAHISGATSVDQRSLINSNVGFVTMILQCSIEMPNISYAWKELKEQLGEEIDSKVKGMVFLKGKLGVCFDVPTASVTEIQEKWHDSRRWQLSVATEQPELEGPREGYGGFRGQREGSRGFRGQRDGNRRFRGQREGSRGPRGQRSGGGNKSNRSQNKGQKRSFSKAFGQ
B2: MCM3 (protein, UniProt P25205 1-808)
chain: MAGTVVLDDVELREAQRDYLDFLDDEEDQGIYQSKVRELISDNQYRLIVNVNDLRRKNEKRANRLLNNAFEELVAFQRALKDFVASIDATYAKQYEEFYVGLEGSFGSKHVSPRTLTSCFLSCVVCVEGIVTKCSLVRPKVVRSVHYCPATKKTIERRYSDLTTLVAFPSSSVYPTKDEENNPLETEYGLSVYKDHQTITIQEMPEKAPAGQLPRSVDVILDDDLVDKAKPGDRVQVVGTYRCLPGKKGGYTSGTFRTVLIACNVKQMSKDAQPSFSAEDIAKIKKFSKTRSKDIFDQLAKSLAPSIHGHDYVKKAILCLLLGGVERDLENGSHIRGDINILLIGDPSVAKSQLLRYVLCTAPRAIPTTGRGSSGVGLTAAVTTDQETGERRLEAGAMVLADRGVVCIDEFDKMSDMDRTAIHEVMEQGRVTIAKAGIHARLNARCSVLAAANPVYGRYDQYKTPMENIGLQDSLLSRFDLLFIMLDQMDPEQDREISDHVLRMHRYRAPGEQDGDAMPLGSAVDILATDDPNFSQEDQQDTQIYEKHDNLLHGTKKKKEKMVSAAFMKKYIHVAKIIKPVLTQESATYIAEEYSRLRSQDSMSSDTARTSPVTARTLETLIRLATAHAKARMSKTVDLQDAEEAVELVQYAYFKKVLEKEKKRKKRSEDESETEDEEEKSQEDQEQKRKRRKTRQPDAKDGDSYDPYDFSDTEEEMPQVHTPKTADSQETKESQKVELSESRLKAFKVALLDVFREAHAQSIGMNRLTESINRDSEEPFSSVEIQAALSKMQDDNQVMVSEGIIFLI
B3: MCM6 (protein, UniProt Q14566 1-821)
chain: MDLAAAAEPGAGSQHLEVRDEVAEKCQKLFLDFLEEFQSSDGEIKYLQLAEELIRPERNTLVVSFVDLEQFNQQLSTTIQEEFYRVYPYLCRALKTFVKDRKEIPLAKDFYVAFQDLPTRHKIRELTSSRIGLLTRISGQVVRTHPVHPELVSGTFLCLDCQTVIRDVEQQFKYTQPNICRNPVCANRRRFLLDTNKSRFVDFQKVRIQETQAELPRGSIPRSLEVILRAEAVESAQAGDKCDFTGTLIVVPDVSKLSTPGARAETNSRVSGVDGYETEGIRGLRALGVRDLSYRLVFLACCVAPTNPRFGGKELRDEEQTAESIKNQMTVKEWEKVFEMSQDKNLYHNLCTSLFPTIHGNDEVKRGVLLMLFGGVPKTTGEGTSLRGDINVCIVGDPSTAKSQFLKHVEEFSPRAVYTSGKASSAAGLTAAVVRDEESHEFVIEAGALMLADNGVCCIDEFDKMDVRDQVAIHEAMEQQTISITKAGVKATLNARTSILAAANPISGHYDRSKSLKQNINLSAPIMSRFDLFFILVDECNEVTDYAIARRIVDLHSRIEESIDRVYSLDDIRRYLLFARQFKPKISKESEDFIVEQYKHLRQRDGSGVTKSSWRITVRQLESMIRLSEAMARMHCCDEVQPKHVKEAFRLLNKSIIRVETPDVNLDQEEEIQMEVDEGAGGINGHADSPAPVNGINGYNEDINQESAPKASLRLGFSEYCRISNLIVLHLRKVEEEEDESALKRSELVNWYLKEIESEIDSEEELINKKRIIEKVIHRLTHYDHVLIELTQAGLKGSTEGSESYEEDPYLVVNPNYLLED
B4: Nup93 (protein, UniProt Q8N1F7 1-819)
chain: MDTEGFGELLQQAEQLAAETEGISELPHVERNLQEIQQAGERLRSRTLTRTSQETADVKASVLLGSRGLDISHISQRLESLSAATTFEPLEPVKDTDIQGFLKNEKDNALLSAIEESRKRTFGMAEEYHRESMLVEWEQVKQRILHTLLASGEDALDFTQESEPSYISDVGPPGRSSLDNIEMAYARQIYIYNEKIVNGHLQPNLVDLCASVAELDDKSISDMWTMVKQMTDVLLTPATDALKNRSSVEVRMEFVRQALAYLEQSYKNYTLVTVFGNLHQAQLGGVPGTYQLVRSFLNIKLPAPLPGLQDGEVEGHPVWALIYYCMRCGDLLAASQVVNRAQHQLGEFKTWFQEYMNSKDRRLSPATENKLRLHYRRALRNNTDPYKRAVYCIIGRCDVTDNQSEVADKTEDYLWLKLNQVCFDDDGTSSPQDRLTLSQFQKQLLEDYGESHFTVNQQPFLYFQVLFLTAQFEAAVAFLFRMERLRCHAVHVALVLFELKLLLKSSGQSAQLLSHEPGDPPCLRRLNFVRLLMLYTRKFESTDPREALQYFYFLRDEKDSQGENMFLRCVSELVIESREFDMILGKLENDGSRKPGVIDKFTSDTKPIINKVASVAENKGLFEEAAKLYDLAKNADKVLELMNKLLSPVVPQISAPQSNKERLKNMALSIAERYRAQGISANKFVDSTFYLLLDLITFFDEYHSGHIDRAFDIIERLKLVPLNQESVEERVAAFRNFSDEIRHNLSEVLLATMNILFTQFKRLKGTSPSSSSRPQRVIEDRDSQLRSQARTLITFAGMIPYRTSGDTNARLVQMEVLMN
B5: Nup85 (protein, UniProt Q9BW27 1-656)
chain: MEELDGEPTVTLIPGVNSKKNQMYFDWGPGEMLVCETSFNKKEKSEMVPSCPFIYIIRKDVDVYSQILRKLFNESHGIFLGLQRIDEELTGKSRKSQLVRVSKNYRSVIRACMEEMHQVAIAAKDPANGRQFSSQVSILSAMELIWNLCEILFIEVAPAGPLLLHLLDWVRLHVCEVDSLSADVLGSENPSKHDSFWNLVTILVLQGRLDEARQMLSKEADASPASAGICRIMGDLMRTMPILSPGNTQTLTELELKWQHWHEECERYLQDSTFATSPHLESLLKIMLGDEAALLEQKELLSNWYHFLVTRLLYSNPTVKPIDLHYYAQSSLDLFLGGESSPEPLDNILLAAFEFDIHQVIKECSIALSNWWFVAHLTDLLDHCKLLQSHNLYFGSNMREFLLLEYASGLFAHPSLWQLGVDYFDYCPELGRVSLELHIERIPLNTEQKALKVLRICEQRQMTEQVRSICKILAMKAVRNNRLGSALSWSIRAKDAAFATLVSDRFLRDYCERGCFSDLDLIDNLGPAMMLSDRLTFLGKYREFHRMYGEKRFADAASLLLSLMTSRIAPRSFWMTLLTDALPLLEQKQVIFSAEQTYELMRCLEDLTSRRPVHGESDTEQLQDDDIETTKVEMLRLSLARNLARAIIREGSLEGS

What was measured:
[1] = molecular target: GST-Tat (HIV-1 HXB2, 86 amino acids) (HIV-1 HXB2), P04608; experiment: affinity purification with mass spectrometry; GST-Tat (bait) or GST (control) immobilised on glutathione-Sepharose 4 Fast Flow; Jurkat nuclear extract (300 ug, Benzonase-treated), rotating at 4°C overnight; binding buffer 20 mM Tris pH 7.4, 300 mM NaCl, 100 mM NaF, 1 mM DTT, 50 mM EDTA, 1% Triton X100, 10% glycerol; eluate on SDS-PAGE, gel slices by LC-MS/MS; only the target purified; settings: remark: other sources report otherwise
[2] = molecular target: GST-Tat (HIV-1 HXB2, 86 amino acids) (HIV-1 HXB2) (UniProt P04608); experiment: affinity purification with mass spectrometry; only the target purified

Binder | binding [1] | binding [2]
B1 | binds | –
B2 | – | binds
B3 | – | binds
B4 | – | binds
B5 | – | binds

Results are given in words; binding and its absence hold for the method and conditions named. Binding seen in cells or lysates may run through a third protein. A yes stands for co-enrichment or nearness to the bait. Other partners may have been found.
